These results are taken from patent WO2020239014A1 (dated 2020).

Experiment [1] has as its target T1, CGRPα (4013281-1000, Bachem) (human, UniProt P06881 83-119, not fully specified).
T1 peptide (looked up): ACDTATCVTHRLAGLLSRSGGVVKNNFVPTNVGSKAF
Briefly: ELISA, coated CGRPα titrated, antibody 1 μg/mL.

For experiment [2], the target named is T1, CGRPα (4013281-1000, Bachem). Put plainly: BLI (Octet RED 96), α-CGRP on streptavidin biosensors. For orientation: Biolayer interferometry detects binding as a change in optical thickness at a sensor tip.

Results are given in words; binding and its absence hold for the method and conditions named. Some entries that bind do so weakly or less than the wild type.

B1: CGRPM5-BA51.23-IgG2 (antibody, V domains shown)
VH: QVQLVQSGAEVKKPGASVKVSCKASGYTFTRYTMHWIRQAPGQGLEWMGYIYPSSGYTIYNQKFQGRVTMTRDTSTSTVYMELSSLRSEDTAVYYCATEGHYAGNGNYEGYWGQGTTVTVSS
VL: DIVMTQSPSSLSASVGDRVTITCRASSSISSNYLHWYQQKPGKAPKLLIYRTSNLASGVPSRFSGSGSGTDFTLTISSLQPEDFATYYCQQGSSIPFTFGQGTKLEIK
notes: Humanized BA51, IgG2; also called CGRP-BA51.23; CGRP-BA51.23-IgG2
Consider B1, for which the binding result in experiment [1] and in experiment [2] was “binds” in each case.
